Measured values reported in the supplement of paper PMC12819154, “High-throughput peptide-centric local stability assay extends protein–ligand identification to membrane proteins, tissues and bacteria” (Nature Structural & Molecular Biology, 2025).
This is one part of the list. Most values lie at the level of the controls, where differences are scatter.

By UniProt entry, the sequences of proteins in these tests, tags left out. Where a name states a change or a piece, a line headed by the entry shows the natural chain unless it says otherwise.
UniProt P45804: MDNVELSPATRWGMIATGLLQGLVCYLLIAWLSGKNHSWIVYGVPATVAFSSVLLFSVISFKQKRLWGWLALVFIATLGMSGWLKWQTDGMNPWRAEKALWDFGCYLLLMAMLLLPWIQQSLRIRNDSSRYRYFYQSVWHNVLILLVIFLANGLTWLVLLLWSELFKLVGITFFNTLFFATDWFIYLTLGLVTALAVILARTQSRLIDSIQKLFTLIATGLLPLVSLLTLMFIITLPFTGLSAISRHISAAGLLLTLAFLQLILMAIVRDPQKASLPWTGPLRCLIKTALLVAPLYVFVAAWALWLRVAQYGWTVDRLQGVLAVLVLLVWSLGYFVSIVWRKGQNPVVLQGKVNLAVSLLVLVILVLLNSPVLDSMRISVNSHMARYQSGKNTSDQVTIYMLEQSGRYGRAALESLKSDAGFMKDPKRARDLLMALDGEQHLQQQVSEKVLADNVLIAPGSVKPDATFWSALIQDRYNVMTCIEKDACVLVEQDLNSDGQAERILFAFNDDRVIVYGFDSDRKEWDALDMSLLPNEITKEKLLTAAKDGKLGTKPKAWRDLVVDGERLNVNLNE
UniProt P33940: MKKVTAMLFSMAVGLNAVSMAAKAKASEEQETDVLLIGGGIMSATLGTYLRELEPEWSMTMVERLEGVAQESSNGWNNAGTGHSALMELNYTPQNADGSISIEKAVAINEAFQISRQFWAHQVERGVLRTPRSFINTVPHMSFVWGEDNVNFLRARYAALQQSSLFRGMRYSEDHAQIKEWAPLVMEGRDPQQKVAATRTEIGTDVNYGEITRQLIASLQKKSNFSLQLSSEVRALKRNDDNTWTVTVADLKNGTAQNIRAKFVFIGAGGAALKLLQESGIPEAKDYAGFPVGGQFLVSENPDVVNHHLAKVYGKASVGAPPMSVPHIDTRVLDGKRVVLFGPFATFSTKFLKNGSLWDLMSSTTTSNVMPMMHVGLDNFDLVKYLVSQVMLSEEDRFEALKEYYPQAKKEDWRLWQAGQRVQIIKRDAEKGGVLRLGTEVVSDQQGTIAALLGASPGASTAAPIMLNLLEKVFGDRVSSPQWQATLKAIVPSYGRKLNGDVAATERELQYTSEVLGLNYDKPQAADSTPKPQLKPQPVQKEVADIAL
UniProt P39831: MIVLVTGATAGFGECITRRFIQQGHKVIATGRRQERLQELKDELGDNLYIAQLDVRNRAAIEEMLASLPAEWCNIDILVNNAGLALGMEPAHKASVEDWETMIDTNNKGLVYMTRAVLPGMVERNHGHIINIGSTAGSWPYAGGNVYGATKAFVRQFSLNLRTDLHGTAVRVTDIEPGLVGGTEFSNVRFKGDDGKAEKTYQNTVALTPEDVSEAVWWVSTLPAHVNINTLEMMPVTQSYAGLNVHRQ
UniProt P45769: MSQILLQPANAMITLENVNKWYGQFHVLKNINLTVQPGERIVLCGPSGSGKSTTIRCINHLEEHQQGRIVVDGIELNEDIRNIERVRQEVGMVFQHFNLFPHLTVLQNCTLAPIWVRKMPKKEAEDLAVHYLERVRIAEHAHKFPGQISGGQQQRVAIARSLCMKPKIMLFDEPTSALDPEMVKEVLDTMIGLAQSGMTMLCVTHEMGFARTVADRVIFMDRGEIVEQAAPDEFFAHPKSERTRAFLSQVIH
UniProt P39358: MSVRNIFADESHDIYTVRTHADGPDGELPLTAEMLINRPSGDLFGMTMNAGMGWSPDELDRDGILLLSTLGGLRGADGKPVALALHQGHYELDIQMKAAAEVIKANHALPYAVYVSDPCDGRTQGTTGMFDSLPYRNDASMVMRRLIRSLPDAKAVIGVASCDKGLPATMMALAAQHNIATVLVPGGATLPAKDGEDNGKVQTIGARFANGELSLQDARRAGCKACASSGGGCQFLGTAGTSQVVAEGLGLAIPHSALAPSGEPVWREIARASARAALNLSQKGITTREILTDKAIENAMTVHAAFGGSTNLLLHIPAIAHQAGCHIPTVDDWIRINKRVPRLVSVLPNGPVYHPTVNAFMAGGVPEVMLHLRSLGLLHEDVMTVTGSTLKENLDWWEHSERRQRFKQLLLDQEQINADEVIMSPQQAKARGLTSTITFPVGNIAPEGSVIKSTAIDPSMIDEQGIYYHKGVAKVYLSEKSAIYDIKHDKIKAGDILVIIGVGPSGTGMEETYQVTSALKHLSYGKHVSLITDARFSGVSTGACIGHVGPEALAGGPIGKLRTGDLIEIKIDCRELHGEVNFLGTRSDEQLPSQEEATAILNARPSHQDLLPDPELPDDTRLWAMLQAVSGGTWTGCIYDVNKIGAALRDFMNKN
UniProt P45736: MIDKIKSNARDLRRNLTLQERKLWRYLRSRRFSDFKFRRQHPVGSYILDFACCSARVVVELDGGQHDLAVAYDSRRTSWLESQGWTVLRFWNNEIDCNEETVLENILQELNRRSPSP
UniProt P45470: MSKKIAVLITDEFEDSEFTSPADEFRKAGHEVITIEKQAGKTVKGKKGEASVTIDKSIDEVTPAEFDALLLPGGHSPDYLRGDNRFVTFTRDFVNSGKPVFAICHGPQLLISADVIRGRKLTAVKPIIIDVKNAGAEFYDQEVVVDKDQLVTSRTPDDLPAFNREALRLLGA
UniProt P37339: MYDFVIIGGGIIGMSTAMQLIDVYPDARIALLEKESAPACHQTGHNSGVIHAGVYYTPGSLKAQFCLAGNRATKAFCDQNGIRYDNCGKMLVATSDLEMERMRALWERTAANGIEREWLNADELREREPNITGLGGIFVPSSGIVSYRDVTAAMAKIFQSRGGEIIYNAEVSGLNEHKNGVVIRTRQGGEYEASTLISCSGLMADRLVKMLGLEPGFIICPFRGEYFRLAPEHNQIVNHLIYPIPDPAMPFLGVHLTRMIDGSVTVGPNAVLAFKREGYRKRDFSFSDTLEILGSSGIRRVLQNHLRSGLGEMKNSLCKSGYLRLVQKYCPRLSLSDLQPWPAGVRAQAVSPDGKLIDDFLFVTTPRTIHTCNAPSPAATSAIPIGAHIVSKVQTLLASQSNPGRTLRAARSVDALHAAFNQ
UniProt P37595: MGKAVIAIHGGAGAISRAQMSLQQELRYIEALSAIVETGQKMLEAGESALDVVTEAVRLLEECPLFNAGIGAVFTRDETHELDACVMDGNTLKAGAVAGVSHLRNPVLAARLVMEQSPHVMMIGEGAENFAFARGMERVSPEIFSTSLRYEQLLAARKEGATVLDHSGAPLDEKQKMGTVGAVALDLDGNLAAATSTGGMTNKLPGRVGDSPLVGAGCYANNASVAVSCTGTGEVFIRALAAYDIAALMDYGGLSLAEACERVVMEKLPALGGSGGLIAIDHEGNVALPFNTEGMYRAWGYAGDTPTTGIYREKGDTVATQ
UniProt P37194: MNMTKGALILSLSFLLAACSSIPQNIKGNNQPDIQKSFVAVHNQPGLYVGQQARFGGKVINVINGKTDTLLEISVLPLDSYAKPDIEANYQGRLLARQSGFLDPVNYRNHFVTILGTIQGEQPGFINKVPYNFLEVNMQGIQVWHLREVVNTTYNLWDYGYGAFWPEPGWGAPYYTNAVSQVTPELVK
UniProt P42597: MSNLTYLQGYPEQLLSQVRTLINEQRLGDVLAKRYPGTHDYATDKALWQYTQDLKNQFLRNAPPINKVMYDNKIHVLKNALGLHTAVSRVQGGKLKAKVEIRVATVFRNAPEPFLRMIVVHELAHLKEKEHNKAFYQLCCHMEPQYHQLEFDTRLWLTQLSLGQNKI
UniProt P37147: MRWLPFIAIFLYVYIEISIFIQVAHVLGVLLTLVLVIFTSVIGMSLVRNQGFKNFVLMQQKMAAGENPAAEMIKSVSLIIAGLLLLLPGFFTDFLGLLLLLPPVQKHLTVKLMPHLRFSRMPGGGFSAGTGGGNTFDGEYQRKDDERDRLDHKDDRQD

Compound: CC1(C)S[C@@H]2[C@H](NC(=O)[C@H](N)c3ccccc3)C(=O)N2[C@H]1C(=O)O [ampicillin]
Experiment: log2 fold change of tryptic peptide abundance, ligand vs vehicle (limited proteolysis) (log2 ratio); higher = more trypsin-susceptible (destabilized)
Settings: ligand concentration: 10 uM; sample: E. coli crude lysate

| Target | log2 fold change |
| --- | --- |
| UniProt P45804 (peptide sequence: ILFAFNDDR, peptide start residue: 504) | 0.0744 |
| UniProt P33940 (peptide sequence: VSSPQWQATLK, peptide start residue: 478) | 0.233 |
| UniProt P39831 (peptide sequence: FKGDDGKAEK, peptide start residue: 190) | -0.156 |
| UniProt P45769 (peptide sequence: SLCMKPK, peptide start residue: 161) | 0.24 |
| UniProt P39358 (peptide sequence: NIFADESHDIYTVR, peptide start residue: 5) | 0.289 |
| UniProt P45736 (peptide sequence: NLTLQERK, peptide start residue: 15) | -0.162 |
| UniProt P45470 (peptide sequence: KGEASVTIDK, peptide start residue: 47) | -0.083 |
| UniProt P37339 (peptide sequence: AFCDQNGIRYDNCGK, peptide start residue: 75) | -0.444 |
| UniProt P37595 (peptide sequence: AGAVAGVSHLRNPVLAAR, peptide start residue: 94) | -0.155 |
| UniProt P37194 (peptide sequence: GNNQPDIQK, peptide start residue: 28) | 0.18 |
| UniProt P42597 (peptide sequence: NAPEPFLR, peptide start residue: 109) | -0.232 |
| UniProt P37147 (peptide sequence: LDHKDDRQD, peptide start residue: 150) | -0.185 |

Fetched one by one from the list above:

| Target | log2 fold change |
| --- | --- |
| UniProt P37595 (peptide sequence: AGAVAGVSHLRNPVLAAR, peptide start residue: 94) | -0.155 |
| UniProt P37194 (peptide sequence: GNNQPDIQK, peptide start residue: 28) | 0.18 |
